{"source": "PubChem BioAssay AID652243 (Drosophila RNAi Screening Center, 2013)", "screen": "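Fly genes required for human androgen receptor driven transcription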 (primary screen)", "cells": "Drosophila S2R+ cells", "reagents": "long dsRNA against Drosophila genes", "time to read-out": "72 h (48 h, then 24 h hormone)", "conditions": "synthetic androgen R1881 at 10 nM for 24 h", "measured": "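Firefly light from an androgen-responsive reporter and Renilla control light per well, raw and unnormalised, for each of two replicates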", "direction": "firefly reporter light: higher = more light from androgen-responsive reporter; Renilla control light: higher = more constitutive control signal (cell number, transfection)", "active means": "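Across duplicate plates, a knock-down whose log firefly/Renilla ratio shifted a set fold down or up from the GFP/LacZ control mean was a hit; the downward cut appears as both 1.5 and 3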", "meaning of the calls": "active = hit: reporter lowered or raised; inactive = no hit", "note": "The screen tested about 24,000 reagents; shown is an unselected part of those with a known target gene and a result. In the full data, 246 (1%) were called active. 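Plates not normalised; calls are printed but the firefly/Renilla ratio behind them is not deposited; fold cut for lowering reported inconsistently.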 Raw values are not corrected between plates. Not given: the amount of reagent."}
{"Gene": "CG11384", "DRSC id": "DRSC18628", "firefly reporter light, replicate 1": 1.75e5, "firefly reporter light, replicate 2": 1.46e5, "Renilla control light, replicate 1": 2.91e6, "Renilla control light, replicate 2": 2.23e6, "Outcome": "inactive"}
{"Gene": "CG4496", "DRSC id": "DRSC02753", "firefly reporter light, replicate 1": 1.42e5, "firefly reporter light, replicate 2": 1.22e5, "Renilla control light, replicate 1": 9.41e5, "Renilla control light, replicate 2": 8.58e5, "Outcome": "inactive"}
{"Gene": "Kdsr", "DRSC id": "DRSC14245", "firefly reporter light, replicate 1": 4.72e5, "firefly reporter light, replicate 2": 5.53e5, "Renilla control light, replicate 1": 2.76e6, "Renilla control light, replicate 2": 4.21e6, "Outcome": "inactive"}
{"Gene": "CG4576", "DRSC id": "DRSC15604", "firefly reporter light, replicate 1": 1.55e5, "firefly reporter light, replicate 2": 1.84e5, "Renilla control light, replicate 1": 2.07e6, "Renilla control light, replicate 2": 2.24e6, "Outcome": "inactive"}
{"Gene": "CG4576", "DRSC id": "DRSC26364", "firefly reporter light, replicate 1": 2.78e5, "firefly reporter light, replicate 2": 2.84e5, "Renilla control light, replicate 1": 4.59e5, "Renilla control light, replicate 2": 4.61e5, "Outcome": "inactive"}
{"Gene": "Asx", "DRSC id": "DRSC23408", "firefly reporter light, replicate 1": 7.01e5, "firefly reporter light, replicate 2": 6.74e5, "Renilla control light, replicate 1": 9.54e5, "Renilla control light, replicate 2": 1.00e6, "Outcome": "inactive"}
{"Gene": "tub", "DRSC id": "DRSC12389", "firefly reporter light, replicate 1": 4.28e5, "firefly reporter light, replicate 2": 3.73e5, "Renilla control light, replicate 1": 4.49e6, "Renilla control light, replicate 2": 3.45e6, "Outcome": "inactive"}
{"Gene": "tub", "DRSC id": "DRSC22800", "firefly reporter light, replicate 1": 5.34e5, "firefly reporter light, replicate 2": 7.31e5, "Renilla control light, replicate 1": 5.70e5, "Renilla control light, replicate 2": 6.39e5, "Outcome": "inactive"}
{"Gene": "CG30413", "DRSC id": "DRSC04001", "firefly reporter light, replicate 1": 65045, "firefly reporter light, replicate 2": 1.17e5, "Renilla control light, replicate 1": 1.32e5, "Renilla control light, replicate 2": 1.32e5, "Outcome": "inactive"}
{"Gene": "CG30413", "DRSC id": "DRSC29520", "firefly reporter light, replicate 1": 3.38e5, "firefly reporter light, replicate 2": 3.51e5, "Renilla control light, replicate 1": 6.87e5, "Renilla control light, replicate 2": 6.87e5, "Outcome": "inactive"}
{"Gene": "CG10874", "DRSC id": "DRSC00297", "firefly reporter light, replicate 1": 91732, "firefly reporter light, replicate 2": 56541, "Renilla control light, replicate 1": 6.65e5, "Renilla control light, replicate 2": 5.48e5, "Outcome": "inactive"}
{"Gene": "CG10874", "DRSC id": "DRSC26108", "firefly reporter light, replicate 1": 3.03e5, "firefly reporter light, replicate 2": 3.08e5, "Renilla control light, replicate 1": 7.36e5, "Renilla control light, replicate 2": 4.31e5, "Outcome": "inactive"}
{"Gene": "CG4502", "DRSC id": "DRSC23237", "firefly reporter light, replicate 1": 7.29e5, "firefly reporter light, replicate 2": 6.28e5, "Renilla control light, replicate 1": 1.29e6, "Renilla control light, replicate 2": 1.07e6, "Outcome": "inactive"}
{"Gene": "side-VI", "DRSC id": "DRSC14920", "firefly reporter light, replicate 1": 1.15e5, "firefly reporter light, replicate 2": 1.16e5, "Renilla control light, replicate 1": 2.34e6, "Renilla control light, replicate 2": 2.17e6, "Outcome": "inactive"}
{"Gene": "side-VI", "DRSC id": "DRSC23088", "firefly reporter light, replicate 1": 6.84e5, "firefly reporter light, replicate 2": 8.71e5, "Renilla control light, replicate 1": 1.36e6, "Renilla control light, replicate 2": 1.67e6, "Outcome": "inactive"}
{"Gene": "side-VI", "DRSC id": "DRSC28883", "firefly reporter light, replicate 1": 4.15e5, "firefly reporter light, replicate 2": 3.59e5, "Renilla control light, replicate 1": 1.51e6, "Renilla control light, replicate 2": 1.45e6, "Outcome": "inactive"}
{"Gene": "Golgin104", "DRSC id": "DRSC10459", "firefly reporter light, replicate 1": 32170, "firefly reporter light, replicate 2": 9536, "Renilla control light, replicate 1": 2.50e5, "Renilla control light, replicate 2": 1.53e5, "Outcome": "inactive"}
{"Gene": "Golgin104", "DRSC id": "DRSC26351", "firefly reporter light, replicate 1": 3.03e5, "firefly reporter light, replicate 2": 3.04e5, "Renilla control light, replicate 1": 8.37e5, "Renilla control light, replicate 2": 7.75e5, "Outcome": "inactive"}
{"Gene": "mIF3", "DRSC id": "DRSC06290", "firefly reporter light, replicate 1": 2.70e5, "firefly reporter light, replicate 2": 1.72e5, "Renilla control light, replicate 1": 1.55e6, "Renilla control light, replicate 2": 1.21e6, "Outcome": "inactive"}
{"Gene": "CG6974", "DRSC id": "DRSC16160", "firefly reporter light, replicate 1": 1.12e5, "firefly reporter light, replicate 2": 69462, "Renilla control light, replicate 1": 1.95e6, "Renilla control light, replicate 2": 1.52e6, "Outcome": "inactive"}
{"Gene": "CG11788", "DRSC id": "DRSC06084", "firefly reporter light, replicate 1": 67845, "firefly reporter light, replicate 2": 52326, "Renilla control light, replicate 1": 1.04e6, "Renilla control light, replicate 2": 9.78e5, "Outcome": "inactive"}

Sorted by “Renilla control light, replicate 2” (low to high): some entries from above
{"Gene": "CG4576", "DRSC id": "DRSC15604", "firefly reporter light, replicate 1": 1.55e5, "firefly reporter light, replicate 2": 1.84e5, "Renilla control light, replicate 1": 2.07e6, "Renilla control light, replicate 2": 2.24e6, "Outcome": "inactive"}
{"Gene": "Kdsr", "DRSC id": "DRSC14245", "firefly reporter light, replicate 1": 4.72e5, "firefly reporter light, replicate 2": 5.53e5, "Renilla control light, replicate 1": 2.76e6, "Renilla control light, replicate 2": 4.21e6, "Outcome": "inactive"}
